Results published in article PMC9798977.
No constants are given. Whether binding was seen depends on the method and setting. In cells and extracts the contact can be indirect. Some entries that bind do so weakly or less than the wild type.

By UniProt entry, the sequences of proteins in these tests, tags left out.
UniProt P83916: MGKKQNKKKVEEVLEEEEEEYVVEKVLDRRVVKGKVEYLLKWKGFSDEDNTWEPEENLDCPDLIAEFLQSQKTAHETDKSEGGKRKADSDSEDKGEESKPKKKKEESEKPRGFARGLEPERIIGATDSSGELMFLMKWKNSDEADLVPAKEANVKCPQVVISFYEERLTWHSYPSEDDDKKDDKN
UniProt Q9H5I1: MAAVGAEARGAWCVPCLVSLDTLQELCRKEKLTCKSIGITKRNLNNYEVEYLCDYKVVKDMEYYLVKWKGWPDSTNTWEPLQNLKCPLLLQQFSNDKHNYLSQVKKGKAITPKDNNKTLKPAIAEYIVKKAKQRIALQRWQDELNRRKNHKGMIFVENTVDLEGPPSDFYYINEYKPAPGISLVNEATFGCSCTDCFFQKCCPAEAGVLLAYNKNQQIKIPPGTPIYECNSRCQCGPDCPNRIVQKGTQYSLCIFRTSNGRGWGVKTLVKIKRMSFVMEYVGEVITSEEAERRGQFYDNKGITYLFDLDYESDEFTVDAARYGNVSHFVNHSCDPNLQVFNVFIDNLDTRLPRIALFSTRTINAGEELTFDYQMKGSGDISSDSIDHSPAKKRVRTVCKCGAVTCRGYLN

Target: FLAG-CBX1 (wild type) (human) (UniProt P83916)
Assay: co-IP; anti-FLAG immunoprecipitation from lysates of SUNE1, HONE1 or HK1 cells expressing FLAG-CBX1, overnight at 4 °C, Protein A/G magnetic beads, western blot; anti-IgG as control; also after treatment of the cells with DMSO, TBB (75 x 10^-6 M, 6 h) or hesperadin (500 x 10^-9 M, 1 h)

binding	Molecule
binds	SUV39H2 (from UniProt Q9H5I1 1-410) (enzyme)
binds	SUV39H1 (enzyme, UniProt O43463 1-412) MAENLKGCSVCCKSSWNQLQDLCRLAKLSCPALGISKRNLYDFEVEYLCDYKKIREQEYYLVKWRGYPDSESTWEPRQNLKCVRILKQFHKDLERELLRRHHRSKTPRHLDPSLANYLVQKAKQRRALRRWEQELNAKRSHLGRITVENEVDLDGPPRAFVYINEYRVGEGITLNQVAVGCECQDCLWAPTGGCCPGASLHKFAYNDQGQVRLRAGLPIYECNSRCRCGYDCPNRVVQKGIRYDLCIFRTDDGRGWGVRTLEKIRKNSFVMEYVGEIITSEEAERRGQIYDRQGATYLFDLDYVEDVYTVDAAYYGNISHFVNHSCDPNLQVYNVFIDNLDERLPRIAFFATRTIRAGEELTFDYNMQVDPVDMESTRMDSNFGLAGLPGSPKKRVRIECKCGTESCRKYLF
